{"sequences": {"note": "Amino acid sequences for entries named in this document (tags omitted). A change or cut given only in a name is not applied to a line headed by its entry.", "UniProt P14373": "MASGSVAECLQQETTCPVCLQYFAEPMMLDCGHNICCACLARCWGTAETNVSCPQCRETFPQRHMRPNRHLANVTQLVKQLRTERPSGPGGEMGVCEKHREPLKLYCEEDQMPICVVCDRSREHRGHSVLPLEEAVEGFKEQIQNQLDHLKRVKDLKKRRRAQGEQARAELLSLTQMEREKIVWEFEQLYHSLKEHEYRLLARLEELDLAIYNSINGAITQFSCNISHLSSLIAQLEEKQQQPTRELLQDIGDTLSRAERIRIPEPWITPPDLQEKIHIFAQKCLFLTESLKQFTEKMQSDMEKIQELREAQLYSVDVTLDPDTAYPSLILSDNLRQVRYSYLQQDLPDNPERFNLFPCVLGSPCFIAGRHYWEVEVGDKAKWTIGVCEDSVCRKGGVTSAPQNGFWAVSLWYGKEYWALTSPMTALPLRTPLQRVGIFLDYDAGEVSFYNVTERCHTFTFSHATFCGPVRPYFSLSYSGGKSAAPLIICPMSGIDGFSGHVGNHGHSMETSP", "UniProt P26374": "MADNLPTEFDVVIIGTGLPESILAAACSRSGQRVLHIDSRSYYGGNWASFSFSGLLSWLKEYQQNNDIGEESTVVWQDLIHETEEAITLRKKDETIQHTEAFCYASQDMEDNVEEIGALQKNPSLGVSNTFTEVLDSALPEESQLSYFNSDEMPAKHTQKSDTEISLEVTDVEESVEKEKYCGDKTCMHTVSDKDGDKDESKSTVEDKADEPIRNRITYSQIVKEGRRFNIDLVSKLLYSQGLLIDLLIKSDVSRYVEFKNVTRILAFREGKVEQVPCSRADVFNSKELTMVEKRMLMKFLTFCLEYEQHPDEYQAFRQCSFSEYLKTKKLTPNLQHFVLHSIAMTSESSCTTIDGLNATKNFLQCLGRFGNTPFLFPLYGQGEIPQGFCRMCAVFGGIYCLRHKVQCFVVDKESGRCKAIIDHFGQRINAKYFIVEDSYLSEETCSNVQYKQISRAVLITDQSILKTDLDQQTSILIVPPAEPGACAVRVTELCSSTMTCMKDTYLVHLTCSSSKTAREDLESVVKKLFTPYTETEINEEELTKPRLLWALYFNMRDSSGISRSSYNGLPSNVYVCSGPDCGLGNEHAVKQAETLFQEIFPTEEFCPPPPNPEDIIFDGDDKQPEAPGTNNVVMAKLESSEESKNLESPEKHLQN", "UniProt P16219": "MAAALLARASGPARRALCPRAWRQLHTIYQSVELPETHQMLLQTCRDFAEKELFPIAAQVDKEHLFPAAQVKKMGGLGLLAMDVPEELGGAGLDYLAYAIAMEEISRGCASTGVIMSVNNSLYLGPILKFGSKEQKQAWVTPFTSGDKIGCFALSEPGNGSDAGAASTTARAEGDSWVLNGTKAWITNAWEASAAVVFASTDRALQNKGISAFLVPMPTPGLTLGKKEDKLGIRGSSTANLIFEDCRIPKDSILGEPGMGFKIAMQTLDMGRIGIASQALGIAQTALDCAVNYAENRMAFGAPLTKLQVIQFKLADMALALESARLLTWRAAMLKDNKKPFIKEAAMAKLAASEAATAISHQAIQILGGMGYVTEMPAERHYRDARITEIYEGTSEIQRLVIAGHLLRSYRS", "UniProt P27797, whole entry": "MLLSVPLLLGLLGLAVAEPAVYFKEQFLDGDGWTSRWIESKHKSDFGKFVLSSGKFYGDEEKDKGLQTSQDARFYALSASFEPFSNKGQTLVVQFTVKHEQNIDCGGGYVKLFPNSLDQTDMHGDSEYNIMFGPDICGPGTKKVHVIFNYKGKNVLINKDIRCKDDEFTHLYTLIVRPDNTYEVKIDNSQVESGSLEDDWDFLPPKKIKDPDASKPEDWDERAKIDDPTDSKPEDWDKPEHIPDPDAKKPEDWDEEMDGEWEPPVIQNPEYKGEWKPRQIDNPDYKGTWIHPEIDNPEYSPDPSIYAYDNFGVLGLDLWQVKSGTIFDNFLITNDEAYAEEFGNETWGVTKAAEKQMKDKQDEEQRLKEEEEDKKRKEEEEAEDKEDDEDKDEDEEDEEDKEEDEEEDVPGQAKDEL", "UniProt P19784, whole entry, looked up": "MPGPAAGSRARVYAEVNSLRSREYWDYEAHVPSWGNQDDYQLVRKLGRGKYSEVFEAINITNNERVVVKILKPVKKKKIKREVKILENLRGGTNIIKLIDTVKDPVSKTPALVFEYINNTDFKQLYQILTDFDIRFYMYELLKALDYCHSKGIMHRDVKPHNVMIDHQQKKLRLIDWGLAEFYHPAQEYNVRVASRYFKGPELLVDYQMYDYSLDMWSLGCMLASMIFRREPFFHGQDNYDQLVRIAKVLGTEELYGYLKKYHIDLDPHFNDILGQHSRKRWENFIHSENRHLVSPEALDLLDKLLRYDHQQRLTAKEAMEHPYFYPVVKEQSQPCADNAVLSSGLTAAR", "UniProt P19623": "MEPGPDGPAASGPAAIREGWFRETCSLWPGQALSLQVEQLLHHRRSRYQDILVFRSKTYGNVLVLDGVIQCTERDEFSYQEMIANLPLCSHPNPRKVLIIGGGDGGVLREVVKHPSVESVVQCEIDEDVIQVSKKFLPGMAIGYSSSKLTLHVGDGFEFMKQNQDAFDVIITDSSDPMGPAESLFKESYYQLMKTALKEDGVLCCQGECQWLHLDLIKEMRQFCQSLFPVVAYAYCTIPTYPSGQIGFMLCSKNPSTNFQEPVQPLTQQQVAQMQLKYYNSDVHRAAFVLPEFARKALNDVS", "UniProt P27816": "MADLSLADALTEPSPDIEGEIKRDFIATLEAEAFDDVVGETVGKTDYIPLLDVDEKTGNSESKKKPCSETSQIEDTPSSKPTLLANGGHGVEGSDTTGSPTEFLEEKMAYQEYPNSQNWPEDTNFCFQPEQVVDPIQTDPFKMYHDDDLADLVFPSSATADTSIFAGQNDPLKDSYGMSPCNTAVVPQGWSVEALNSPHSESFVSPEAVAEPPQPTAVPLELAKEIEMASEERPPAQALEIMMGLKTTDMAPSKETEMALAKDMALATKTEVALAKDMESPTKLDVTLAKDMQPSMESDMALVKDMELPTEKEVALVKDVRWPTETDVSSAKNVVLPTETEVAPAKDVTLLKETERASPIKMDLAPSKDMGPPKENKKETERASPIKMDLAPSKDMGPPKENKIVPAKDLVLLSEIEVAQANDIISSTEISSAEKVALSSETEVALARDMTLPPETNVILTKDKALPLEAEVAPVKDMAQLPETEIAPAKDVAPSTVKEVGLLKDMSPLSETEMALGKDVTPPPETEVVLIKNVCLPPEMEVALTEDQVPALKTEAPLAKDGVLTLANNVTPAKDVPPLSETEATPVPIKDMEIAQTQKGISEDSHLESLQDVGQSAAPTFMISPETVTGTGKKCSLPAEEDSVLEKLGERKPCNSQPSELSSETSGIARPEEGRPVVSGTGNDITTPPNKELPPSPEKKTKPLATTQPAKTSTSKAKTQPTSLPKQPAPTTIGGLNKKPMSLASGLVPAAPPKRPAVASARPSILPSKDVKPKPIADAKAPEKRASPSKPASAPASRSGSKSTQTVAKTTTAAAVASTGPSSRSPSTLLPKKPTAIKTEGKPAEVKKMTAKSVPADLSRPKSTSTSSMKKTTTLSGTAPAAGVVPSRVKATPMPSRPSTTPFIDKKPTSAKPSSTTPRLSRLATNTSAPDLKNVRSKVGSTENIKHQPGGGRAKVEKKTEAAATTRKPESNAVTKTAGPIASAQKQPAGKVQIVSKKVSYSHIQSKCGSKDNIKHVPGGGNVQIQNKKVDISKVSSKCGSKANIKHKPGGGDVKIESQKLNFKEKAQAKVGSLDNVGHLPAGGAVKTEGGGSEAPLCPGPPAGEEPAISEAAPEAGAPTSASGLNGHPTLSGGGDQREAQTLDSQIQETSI", "UniProt P22692": "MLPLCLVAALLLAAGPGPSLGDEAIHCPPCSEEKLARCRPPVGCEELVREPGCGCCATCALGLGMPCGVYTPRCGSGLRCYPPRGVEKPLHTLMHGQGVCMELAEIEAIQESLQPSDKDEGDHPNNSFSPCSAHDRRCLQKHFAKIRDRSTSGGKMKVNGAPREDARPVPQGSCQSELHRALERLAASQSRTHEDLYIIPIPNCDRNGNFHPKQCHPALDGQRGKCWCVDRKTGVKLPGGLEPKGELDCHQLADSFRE", "UniProt P25705": "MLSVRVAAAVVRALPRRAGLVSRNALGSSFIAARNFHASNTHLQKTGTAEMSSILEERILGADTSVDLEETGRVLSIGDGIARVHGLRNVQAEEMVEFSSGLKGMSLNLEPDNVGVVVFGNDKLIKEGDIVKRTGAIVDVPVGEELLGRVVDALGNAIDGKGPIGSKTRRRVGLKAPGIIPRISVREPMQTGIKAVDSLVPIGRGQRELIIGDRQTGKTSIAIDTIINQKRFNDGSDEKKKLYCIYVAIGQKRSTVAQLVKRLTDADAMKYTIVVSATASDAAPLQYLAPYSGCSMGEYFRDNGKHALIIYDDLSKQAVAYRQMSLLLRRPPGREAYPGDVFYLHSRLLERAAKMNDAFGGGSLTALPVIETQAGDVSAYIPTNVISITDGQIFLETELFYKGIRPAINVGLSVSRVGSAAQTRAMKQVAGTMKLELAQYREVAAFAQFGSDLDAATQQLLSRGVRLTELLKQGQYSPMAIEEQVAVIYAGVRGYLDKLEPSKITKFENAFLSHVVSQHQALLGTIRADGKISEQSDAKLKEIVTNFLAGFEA"}, "source": "the supplement of paper PMC12819154", "about": "“High-throughput peptide-centric local stability assay extends protein–ligand identification to membrane proteins, tissues and bacteria” (Nature Structural & Molecular Biology, 2025)", "compound": "Cc1nc(Nc2ncc(C(=O)Nc3c(C)cccc3Cl)s2)cc(N2CCN(CCO)CC2)n1 [dasatinib]", "test": "log2 fold change of tryptic peptide abundance, ligand vs vehicle (limited proteolysis) (log2 ratio); higher = more trypsin-susceptible (destabilized)", "settings": "ligand concentration: 5 uM; sample: K562 cleared lysate", "note": "Some of the results follow. Most entries show no effect beyond the scatter of the controls.", "data": [{"target": "TRIM27 (peptide sequence: HYWEVEVGDKAK, peptide start residue: 371) (UniProt P14373)", "values": [{"measurement": "log2 fold change", "value": 0.737}]}, {"target": "CHML (peptide sequence: QCSFSEYLK, peptide start residue: 319) (UniProt P26374)", "values": [{"measurement": "log2 fold change", "value": 0.11}]}, {"target": "ACADS (peptide sequence: AEGDSWVLNGTK, peptide start residue: 172) (UniProt P16219)", "values": [{"measurement": "log2 fold change", "value": 0.366}]}, {"target": "CALR (peptide sequence: FYGDEEKDK, peptide start residue: 56) (UniProt P27797)", "values": [{"measurement": "log2 fold change", "value": 0.262}]}, {"target": "UniProt P19784 (peptide sequence: EAMEHPYFYPVVK, peptide start residue: 318)", "values": [{"measurement": "log2 fold change", "value": 0.447}]}, {"target": "SRM (peptide sequence: YYNSDVHR, peptide start residue: 278) (UniProt P19623)", "values": [{"measurement": "log2 fold change", "value": 0.0841}]}, {"target": "MAP4 (peptide sequence: TTDMAPSKETEMALAKDMALATK, peptide start residue: 247) (UniProt P27816)", "values": [{"measurement": "log2 fold change", "value": -0.311}]}, {"target": "IGFBP4 (peptide sequence: EDARPVPQGSCQSELHR, peptide start residue: 164) (UniProt P22692)", "values": [{"measurement": "log2 fold change", "value": -0.346}]}, {"target": "UniProt P25705 (peptide sequence: VVDALGNAIDGK, peptide start residue: 150)", "values": [{"measurement": "log2 fold change", "value": 0.111}]}]}
